Results: US20250388907

Chains of the proteins cited; added tags and fusions are not shown. Residues count along the entry.
UniProt P10721, 26-976: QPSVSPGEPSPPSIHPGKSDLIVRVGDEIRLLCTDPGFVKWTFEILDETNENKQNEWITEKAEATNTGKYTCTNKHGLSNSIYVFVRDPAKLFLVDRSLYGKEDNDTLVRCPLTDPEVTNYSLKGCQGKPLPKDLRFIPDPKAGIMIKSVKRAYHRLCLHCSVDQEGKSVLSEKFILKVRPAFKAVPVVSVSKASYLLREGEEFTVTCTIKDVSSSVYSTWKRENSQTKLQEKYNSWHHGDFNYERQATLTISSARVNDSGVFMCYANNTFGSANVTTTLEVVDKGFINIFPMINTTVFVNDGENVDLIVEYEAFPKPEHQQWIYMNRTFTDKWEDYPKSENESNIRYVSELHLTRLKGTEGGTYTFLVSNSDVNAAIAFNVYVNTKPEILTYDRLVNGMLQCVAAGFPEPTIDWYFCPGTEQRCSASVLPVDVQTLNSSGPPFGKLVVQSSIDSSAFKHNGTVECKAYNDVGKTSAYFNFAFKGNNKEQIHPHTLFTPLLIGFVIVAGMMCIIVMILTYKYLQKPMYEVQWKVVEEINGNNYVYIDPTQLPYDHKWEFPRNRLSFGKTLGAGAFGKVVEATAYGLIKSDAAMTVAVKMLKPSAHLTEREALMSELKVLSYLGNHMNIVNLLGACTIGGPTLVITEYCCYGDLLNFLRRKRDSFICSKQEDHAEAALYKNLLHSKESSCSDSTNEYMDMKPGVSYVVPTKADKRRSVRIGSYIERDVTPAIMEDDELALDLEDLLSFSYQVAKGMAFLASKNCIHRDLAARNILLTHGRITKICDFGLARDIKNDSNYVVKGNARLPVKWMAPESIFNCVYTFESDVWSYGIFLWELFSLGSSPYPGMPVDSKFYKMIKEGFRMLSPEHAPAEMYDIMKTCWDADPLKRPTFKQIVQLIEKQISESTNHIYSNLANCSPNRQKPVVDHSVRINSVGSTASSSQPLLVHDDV
UniProt P26951, 19-378: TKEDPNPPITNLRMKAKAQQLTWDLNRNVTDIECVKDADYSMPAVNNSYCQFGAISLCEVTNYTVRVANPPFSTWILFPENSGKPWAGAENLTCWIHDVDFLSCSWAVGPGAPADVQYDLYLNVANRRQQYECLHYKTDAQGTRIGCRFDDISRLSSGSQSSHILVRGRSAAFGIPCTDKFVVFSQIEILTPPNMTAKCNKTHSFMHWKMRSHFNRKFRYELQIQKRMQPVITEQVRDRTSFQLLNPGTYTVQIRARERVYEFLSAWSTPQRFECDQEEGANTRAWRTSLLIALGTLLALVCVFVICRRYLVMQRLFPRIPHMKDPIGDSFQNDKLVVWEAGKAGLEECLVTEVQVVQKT

How the values were obtained:
[1] = target: CD117 (c-KIT) on AML cells (Homo sapiens) (UniProt P10721); experiment: flow cytometry; conditions: protein on the cell surface, protein details: endogenous, KASUMI-1 and HEL92.1.7 cells, label: 5' FAM (flow cytometry), single-stranded DNA
[2] = target: CD123 (IL3RA) on AML cells (Homo sapiens) (UniProt P26951); experiment: flow cytometry; conditions: protein on the cell surface, protein details: endogenous, HL-60 and KASUMI-1 cells, label: 5' FAM (flow cytometry), single-stranded DNA
[3] = positive on KASUMI-1 and HEL92.1.7, negative on CD117- HL60 and MM1S
[4] = no binding to HL60 (CD117- CD123+)
[5] = no binding to HEL92.1.7 (CD117+ CD123-)
[6] = positive on HL60, negative on HEL92.1.7 and MM1S

| Sequence | binding result [1, 3] | binding result [2, 4] | binding result [1, 5] | binding result [2, 6] |
| --- | --- | --- | --- | --- |
| ATCCAGAGTGACGCAGCACCGCCCATGTCGAATAGGTGCCACGTAGGGACTTGGACACGGTGGCTTAGT [ABWT050902] | binds | no binding |  |  |
| ATCCAGAGTGACGCAGCACGAGCCTTGTGTCGTTCGGAGTGCTGGTCCACGACTACTATTGGACACGGTGGCTTAGT [ABWT050904] | binds | no binding |  |  |
| GAGGCATACCAGCTTATTCAAGGGGCCGGGGCAAGGGGGGGGTACCGTGGTAGGACATAGTAAGTGCAATCTGCGAA [#1] | binds | no binding |  |  |
| TGCGTGTGTACTGTGTCTGGTCCCGTAGCTACTAGCGAACTCCCTGCCTCTTAGGGATTTGGGCGG [CY30] |  |  | no binding | binds |
| TGCGTGTGTAGTGTGTCTGGGCTACATCGATGAGCTGCCTAGGGTCCCTCTTAGGGATTTGGGCGGG [ZW25] |  |  | no binding | binds |

At least one result comes from cells or an extract, where the contact may be indirect. A negative result means that nothing was seen under these conditions.
